According to paper PMC7721737, “Cytosolic sequestration of the vitamin D receptor as a therapeutic option for vitamin D-induced hypercalcemia” (Nature Communications, 2020):
These are yes or no findings as the source states them, for the method shown. Binding seen in cells or lysates may run through a third protein. These calls come from enrichment with a bait or labelling near it, and not all partners need be listed. A no says only that the protein was not detected with the bait.

Chains of the proteins cited; added tags and fusions are not shown.
UniProt F1LNJ2: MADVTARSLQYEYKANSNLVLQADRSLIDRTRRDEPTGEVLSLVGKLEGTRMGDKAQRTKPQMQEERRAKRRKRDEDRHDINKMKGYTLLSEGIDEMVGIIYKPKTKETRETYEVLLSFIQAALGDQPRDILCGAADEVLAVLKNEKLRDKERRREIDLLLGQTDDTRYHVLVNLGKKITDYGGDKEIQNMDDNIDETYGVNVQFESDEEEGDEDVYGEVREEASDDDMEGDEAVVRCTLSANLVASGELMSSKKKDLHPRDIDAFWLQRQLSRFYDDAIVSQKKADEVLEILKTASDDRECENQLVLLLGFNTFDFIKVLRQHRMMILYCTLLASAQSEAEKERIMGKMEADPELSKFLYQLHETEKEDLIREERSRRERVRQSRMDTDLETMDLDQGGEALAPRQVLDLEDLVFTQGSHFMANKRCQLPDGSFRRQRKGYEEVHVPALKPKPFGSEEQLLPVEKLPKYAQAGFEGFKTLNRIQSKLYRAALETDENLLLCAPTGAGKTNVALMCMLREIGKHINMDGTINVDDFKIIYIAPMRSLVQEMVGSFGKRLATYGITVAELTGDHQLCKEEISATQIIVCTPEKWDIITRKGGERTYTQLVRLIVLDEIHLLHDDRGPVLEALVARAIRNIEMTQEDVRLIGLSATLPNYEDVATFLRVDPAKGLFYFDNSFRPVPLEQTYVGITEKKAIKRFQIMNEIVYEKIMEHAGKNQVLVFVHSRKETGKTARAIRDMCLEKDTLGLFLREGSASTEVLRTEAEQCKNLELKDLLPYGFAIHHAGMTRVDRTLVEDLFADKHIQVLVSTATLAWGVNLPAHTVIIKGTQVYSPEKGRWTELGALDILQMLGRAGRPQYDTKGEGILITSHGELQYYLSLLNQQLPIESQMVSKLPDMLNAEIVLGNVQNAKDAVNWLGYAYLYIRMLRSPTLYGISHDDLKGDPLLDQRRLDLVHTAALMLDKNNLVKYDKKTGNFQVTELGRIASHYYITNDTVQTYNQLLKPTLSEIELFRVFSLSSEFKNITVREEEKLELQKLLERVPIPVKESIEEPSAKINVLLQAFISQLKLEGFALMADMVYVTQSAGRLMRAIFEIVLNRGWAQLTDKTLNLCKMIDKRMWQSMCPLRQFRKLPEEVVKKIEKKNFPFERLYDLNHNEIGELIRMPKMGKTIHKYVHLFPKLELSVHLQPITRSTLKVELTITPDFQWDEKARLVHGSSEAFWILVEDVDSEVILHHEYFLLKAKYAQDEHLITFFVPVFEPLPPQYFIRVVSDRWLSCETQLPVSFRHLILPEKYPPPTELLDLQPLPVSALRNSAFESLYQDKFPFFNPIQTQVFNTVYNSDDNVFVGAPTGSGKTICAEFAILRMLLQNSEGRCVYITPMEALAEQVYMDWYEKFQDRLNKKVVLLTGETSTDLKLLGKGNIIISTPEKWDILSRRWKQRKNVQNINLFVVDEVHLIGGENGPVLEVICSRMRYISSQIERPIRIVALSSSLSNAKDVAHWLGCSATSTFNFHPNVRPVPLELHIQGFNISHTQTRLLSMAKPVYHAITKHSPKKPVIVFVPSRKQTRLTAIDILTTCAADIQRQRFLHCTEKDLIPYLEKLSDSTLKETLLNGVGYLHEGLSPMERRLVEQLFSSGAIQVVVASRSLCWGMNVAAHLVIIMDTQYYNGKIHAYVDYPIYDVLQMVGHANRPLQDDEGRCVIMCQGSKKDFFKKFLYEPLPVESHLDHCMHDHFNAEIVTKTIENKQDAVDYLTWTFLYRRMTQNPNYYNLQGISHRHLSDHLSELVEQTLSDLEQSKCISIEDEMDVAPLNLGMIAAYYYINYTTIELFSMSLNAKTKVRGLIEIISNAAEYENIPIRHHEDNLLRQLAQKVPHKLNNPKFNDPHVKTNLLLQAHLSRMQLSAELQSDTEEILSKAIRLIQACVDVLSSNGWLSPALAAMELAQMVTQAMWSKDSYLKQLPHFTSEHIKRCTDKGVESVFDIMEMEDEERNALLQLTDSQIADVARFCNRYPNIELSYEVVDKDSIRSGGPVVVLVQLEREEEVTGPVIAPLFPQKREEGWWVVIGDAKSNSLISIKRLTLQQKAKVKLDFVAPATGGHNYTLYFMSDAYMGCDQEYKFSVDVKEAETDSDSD

T1: vitamin D receptor, endogenous in IEC-18 rat intestinal epithelial cells (rat (endogenous in IEC-18)) (UniProt P13053)
T1 sequence: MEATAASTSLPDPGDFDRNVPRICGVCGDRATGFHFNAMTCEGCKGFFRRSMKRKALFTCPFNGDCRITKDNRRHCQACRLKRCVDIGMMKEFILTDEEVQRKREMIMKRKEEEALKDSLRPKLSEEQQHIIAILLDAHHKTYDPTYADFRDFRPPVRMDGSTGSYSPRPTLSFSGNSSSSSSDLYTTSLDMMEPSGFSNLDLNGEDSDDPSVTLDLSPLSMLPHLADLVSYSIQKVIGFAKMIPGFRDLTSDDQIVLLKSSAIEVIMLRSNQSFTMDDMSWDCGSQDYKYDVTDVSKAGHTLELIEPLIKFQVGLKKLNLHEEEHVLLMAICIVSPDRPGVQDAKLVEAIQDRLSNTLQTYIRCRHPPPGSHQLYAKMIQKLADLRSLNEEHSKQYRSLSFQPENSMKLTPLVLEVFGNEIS

B1: WBP4, endogenous in IEC-18 rat intestinal epithelial cells (protein, UniProt Q5HZF2 1-374)
chain: MADYWKSQPKKFCDYCKCWIADNRPSVEFHERGKNHKENVARKISEIKQKSLDKAKEEEKASKEFAAMEAAALKAYQEDLKRLGLQSDISEPTISPVTNTVQPTPTANQQKEKKKKKKKKEASKGRWVEGVTADGHCYYYDLVTGASQWEKPEGFQGNLKKTAAKAIWVEGLSEDGYTYYYNTETGESKWEKPDDFIPHGGDVLSSKDSEKLPDTLEDSKSSDSHSDSDDEQKKAGEASAETKKLIIKFKEKNKSTEKRIGPEIQKEKTTPKQNPSNTNEEKPKTPKKSTNPYGEWQEIKQEAESQEEVDLELPSTENECLSSSEAGAGEIKVVFKEKTVSSLGVAADGVAPVFKKRRIENGKSRNLRQRGEDE

Assays:
[1] = target: T1, vitamin D receptor, endogenous in IEC-18 rat intestinal epithelial cells (rat (endogenous in IEC-18)); test: affinity purification with mass spectrometry; anti-VDR immunoprecipitation of cytosolic extracts of IEC-18 cells treated for 1.5 h with 100 nM 1,25D3 and 1 µM ZK (compared to vehicle); IgG as negative control
[2] = target: T1, vitamin D receptor, endogenous in IEC-18 rat intestinal epithelial cells (rat (endogenous in IEC-18)); test: condition: only cells treated with 100 nM 1,25D3 alone; affinity purification with mass spectrometry; anti-VDR immunoprecipitation of cytosolic extracts of IEC-18 cells treated for 1.5 h with 100 nM 1,25D3 alone

Molecule | binding [1] | binding [2]
BRR2, endogenous in IEC-18 cells (from UniProt F1LNJ2 1-2139) | no binding | 
B1 | binds | no binding
